# Reference: PubChem BioAssay AID1508600 (Functional Genomics Laboratory (NCATS/FGL), 2020)
# The whole screen tested about 53,000 sequences, of which about 3,700 (7%) were called active.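 How the source made its calls: active means gene knockdowns whose robust z-score for IL-1 alpha signal is at least 2 or at most -2, so actives lie on both sides; inactive means the rest.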 The list shows a part of the results.
# Test: Components of the Cytosolic LPS Sensing Pathway: Gene Identification via Genome-wide siRNA Screen;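 further: robust z of the log signal after scaling to non-targeting control siRNA wells of the plate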
# Conditions: RAW264.7 macrophages, IL-1a HTRF, actives lie on both sides, screened at 100 nM (by protocol), cells primed 5 h with Pam3CSK4 first
# Procedure, shortened: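 Mouse macrophage line RAW264.7 is transfected with siRNA (100 nM final), grown 48h, primed with TLR ligand Pam3CSK4 5 h and given intracellular LipidA 24 h. IL-1a in supernatant is read by HTRF and viability by luminescence.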
row,Sequence,z-score
1,GCACAUUUUGCGAGUACUCTT against Rps18,inactive: 0.486
2,GCUACGAGAUUCUUGUUGCTT against Taar3,inactive: -0.615
3,GGAAGCUUAUAAAAAUGUGTT against Htatip2,inactive: -1.4
4,GGAGCGAGUAGACAUUCUGTT against Rdh13,inactive: 1.72
5,GGGAACAAAGCUGACCUUGTT against Rab5b,inactive: -0.319
6,GGAACUCUGGAAUAAUCUGTT against St6galnac2,inactive: 1.58
7,GCUGGAGUUCAGAACAUAATT against Trav7d-6,inactive: -0.822
8,CGUGGAUGUGUCAUCUAUUTT against Mapk10,inactive: 1.27
9,GGCUCAGAUUUUGUGAUUCTT against Olfr894,inactive: -1.44
10,CGAUCAGUGGUAUAAACUGTT against Maats1,inactive: -0.0818
11,GGUAGUCAUUAUUAGGUGUTT against Mreg,inactive: 1.28
12,GGUUUGCAUAUCUCACCCUTT against Sirt6,active: -2.38
13,GGUGGAAAAGCAAUUCCUUTT against Cma1,inactive: -0.243
14,GCUGAUCCAACUGGAAUCUTT against Cep164,inactive: 0.61
15,CCGGCAACAUGCGUGAAUUTT against Trpv4,inactive: -0.506
16,GAAAAACUGCUGUUUUGGATT against Ly6g6d,inactive: 1.87
17,CCUCCACAUUUAUUUGCUATT against Mbtd1,inactive: 1.23
18,GGGAAUUUUCUCCAAAAUUTT against Cdcp3,inactive: 1.07
19,GGUGCAGAAUGCAAUGGAUTT against Ing3,active: 2.51
20,GGAUCUACAUGCUUCUCAGTT against 1700018B24Rik,inactive: -0.967
21,GGACCUCUGUGAGGAAGUGTT against Prkcz,inactive: -1.19
22,CGAGAUGUUUAUUCAACAUTT against Tcf23,inactive: -0.431

# Rewritten bar-delimited: part of the list above.
row | Sequence | z-score
6 | GGAACUCUGGAAUAAUCUGTT against St6galnac2 | inactive: 1.58
11 | GGUAGUCAUUAUUAGGUGUTT against Mreg | inactive: 1.28
15 | CCGGCAACAUGCGUGAAUUTT against Trpv4 | inactive: -0.506
17 | CCUCCACAUUUAUUUGCUATT against Mbtd1 | inactive: 1.23
22 | CGAGAUGUUUAUUCAACAUTT against Tcf23 | inactive: -0.431

# The listing continues.

row,Sequence,z-score
1,GGCUCCACACGAUUGUUAGTT against Gne,inactive: -0.0134
2,GGAUCAUUGAUGUUGUCUATT against Rps8,inactive: -0.39
3,GGUUCAUCUGUACAAAAUCTT against Zfp110,inactive: 0.708
4,GGUGCUCUUAAUUCAUAUATT against Cwc25,inactive: 0.4
5,GCCCAUUGAGUUUGAUUCATT against Itgav,inactive: 1.57
6,GGUCUGGAUGCUUUAGAAUTT against Fam114a1,inactive: -0.373
7,GGAAUUCAAGAAUGCACAGTT against Jarid2,inactive: -0.173
8,GGAUCACACUAGUAUUUUCTT against Sertad2,inactive: -0.923
9,GGAGGUCACUCUUAUCCACTT against Aifm2,inactive: 0.229
10,GGGUAGCCAAACAAAGACATT against Cenpt,inactive: 1.75
11,GCUACAAUUGUCUAAAUCCTT against Slc25a20,inactive: -0.302
12,CCAGAACCGUUACUUAGACTT against Bet1l,inactive: -0.378
13,GGAAGAAGAAGUGUCACUATT against Wasf2,inactive: -0.057
14,GGUGAAUACCAGAAGUAAATT against Slc6a8,inactive: -0.602
15,GGAAGCAGCCAAGAAGUUATT against Olfr259,inactive: 0.28
16,GGGCAGAAUCCAUUGACAATT against Chmp5,inactive: 0.748
17,GGAUGGUGAGAAGCUGAUCTT against Omp,inactive: 0.458
18,CGCACCCACCAUGUUUUAUTT against Radil,inactive: 1.03
19,CGAUCGAAUCCUUAAGUACTT against Ttll1,inactive: -0.0193
20,CCAUACACAACAUUCCAGATT against Slc39a11,inactive: 0.0339
21,GGACUUUGAAUCAUGUGAATT against Lss,inactive: -0.659
22,CGAUCAUGAAUCCUCAAACTT against Olfr828,inactive: -0.915

row,Sequence,z-score
1,CCCUGACACAGUAGCAUUUTT against Eef1a1,inactive: -0.778
2,GGACUUCCAGUACCUAAGGTT against Smpd2,inactive: -0.381
3,AGGAGCUUUGCUUAGCACUTT against Ccdc85b,inactive: -0.981
4,GGGAAGAUUGUGCAAAUGUTT against Zfp386,inactive: -0.535
5,GGCCCACUUAUGAUGUACATT against Eef2,inactive: 0.0822
6,CGAGGCACCAGAUUUGUAATT against Klhl30,inactive: -0.379
7,GCUAAACAUAAAAAUCGACTT against Garre1,inactive: -1.27
8,GGUUUGUGGUGAACUUUCATT against Lgals9,inactive: 0.707
9,GGAUUGCCAUCUGUGGUGCTT against Ptgr1,inactive: -0.719
10,GCCCAGAAUAGACAAACCGTT against Wfdc15b,inactive: -1.95
11,GAGUCCUUGGGACAUUCUCTT against Olfr168,inactive: 0.428
12,GCACCGGGCUGAACUUUACTT against Lhcgr,inactive: 0.957
13,GGAAGAUGGAGGAGAAGAATT against Hrh3,inactive: -1.37
14,GGGCAACUAUCUUCAAAAATT against Nxnl2,inactive: 0.328
15,GGGAGAAAUACAUACACACTT against Cish,inactive: 1.46
16,AGAACAUGGAGGUUAAGAUTT against Plk5,inactive: -1.3
17,GGCAUUUAGUAAAACCCUUTT against Rnf144a,active: -2.43
18,CCGUAACCCAGAAAAUGUATT against Eva1a,active: -2.01
19,GCUAAUGUGUUCAUUACAGTT against Nek7,inactive: -0.256
20,GCUUUAAGUACUUUAACGCTT against Ncr1,inactive: 1.04
21,GGAAUUCAAUCUCCUCUACTT against Popdc2,inactive: -0.294
22,CGUGAAAAGGAGUUUCAAGTT against Map3k21,inactive: 1.08

row,Sequence,z-score
1,GCUUCCUUAUGGUUUGAACTT against Atp9a,inactive: 1.06
2,GGGUGCAGGAAUUGGUGUUTT against Cd37,inactive: 0.582
3,GCGAGAUUGGUGCAAAACUTT against Grem1,inactive: -1.43
4,GGGCUCACAUUGUACACACTT against Nckap5,inactive: 0.525
5,GGGAAAGUAAGGGCUGGUUTT against Olfr317,inactive: 0.553
6,CCAUUGCCUACCUUGGAUGTT against Olfr492,inactive: -0.839
7,GGAAUAGAUUUUUUGAGUGTT against Twistnb,inactive: 0.465
8,CCACCUAAUUUAUUGCUGUTT against Mafk,inactive: 0.745
9,GGUGAAACUUGCACAAUAUTT against Rfwd3,inactive: 0.137
10,GUUGGCCAGAAUUCUGAAATT against Lyz1,inactive: -0.555
11,GGAUGCUAGCAAAAGGGAUTT against Bex2,inactive: 0.597
12,GGGAGAAGAAAUGGUUUAATT against Cd300a,inactive: 1.13
13,CGUGACUAUUGGAGAAUUUTT against Gpr156,inactive: 0.295
14,GGGUAUGGUUUCAUCACUUTT against Boll,active: -2.71
15,GGUCUGUAUCCUUAUGGCUTT against Olfr103,inactive: -0.0493
16,GGUUUCCUUUUUGUUCAUUTT against Dlg3,inactive: 0.566
17,GCAAUGUUCUCCGUAAACATT against Acss2,inactive: 1.15
18,GCUUGGACCAUAAAUACUGTT against Senp5,inactive: 0.051
19,CGACGAAUGUCCUGAACAUTT against Tmem106a,inactive: -0.193
20,GGUAUGGCAUUUCAAACCUTT against Mff,inactive: -1.12
21,GGCAUUGAUCCUGUCCAUGTT against Ddx11,inactive: -1.32
22,CCAAGGUACAAUCUAACCATT against Chmp1a,inactive: -0.407

row,Sequence,z-score
1,GCCACAGAAAGUGAUUGAGTT against Rbp7,inactive: -0.418
2,GCUAAACAUUAGGUAAAGGTT against Cyp24a1,inactive: 0.524
3,GGGUUUGACAGAGAGAAGATT against Atp5g2,inactive: -0.581
4,GAUGUACUUCUUUGUAGCUTT against Olfr398,inactive: 1.96
5,GGAAGAGCUCAUGAAGCUGTT against Foxi1,inactive: -0.534
6,GCUAGCAGGCUCAGUUUACTT against Mbd6,inactive: 1.26
7,GGGUUAUAAUGAAAAUCCUTT against Cabp5,inactive: -0.341
8,GGAGCUCGCCAAAAGGAAGTT against Cep19,inactive: 1.97
9,GGACUAUGAGCAGAUGAAGTT against Calcb,inactive: -0.217
10,GGUUAAUGAGCUCUGUAAATT against Pknox1,inactive: -0.508
11,GGAAGUUCGCUUGGUACCGTT against Snrpb2,inactive: -1.65
12,GCGGAAGUAAGCUUGGAUGTT against Gatd1,inactive: 0.505
13,GAUGCCUUUUAUGGGUGCATT against Olfr61,inactive: 0.0552
14,GCGAGCUUAUAGGUUCGUGTT against Spop,inactive: 0.89
15,GGGCAAAAUUUUACUAAUCTT against Ppp1r9b,inactive: 0.98
16,GCAAUAACCUGGUAGGCUCTT against Fxyd6,inactive: -0.521
17,CCUAAUGUAGUUGUCUCUUTT against Rbp3,inactive: 0.534
18,GGAUGUCUGUCCUCUUAAATT against Igflr1,inactive: 0.934
19,CCACGUCUUUGAGGUACCUTT against Lrrc52,inactive: -0.0769
